Experimental data taken from article PMC8162784.

Columns and labels:
hemoglobin = assay: electrochemical aptasensor (current response); settings: 0.2 ng/ml hemoglobin vs 50 pg/ml cTnI, negligible current change; 5'-NH2-C6H12; aptamer dissolved in 0.1 M Tris-HCl; [Fe(CN)6]3-/4- redox probe; assay salt, pH and temperature not stated; commercial protein; single-stranded DNA
myoglobin = assay: electrochemical aptasensor (current response); settings: 0.2 ng/ml myoglobin vs 50 pg/ml cTnI, negligible current change; 5'-NH2-C6H12; aptamer dissolved in 0.1 M Tris-HCl; [Fe(CN)6]3-/4- redox probe; assay salt, pH and temperature not stated; commercial protein; single-stranded DNA

CGTGCAGTACGCCAACCTTTCTCATGCGCGCTGCCCCTCTTA [AcTnI (amino-modified cTnI aptamer)]
binding result (hemoglobin): no binding
binding result (myoglobin): no binding

Construct, isoform or probe ends are uncertain for at least one entry. A negative result means that nothing was seen under these conditions.
